{"source": "patent US12440528B2", "about": "“Methods of treating ovarian cancer with hemp extract” (Ecofibre USA Inc., priority 2021, dated 2025)", "tested_on": "patient derived organoids (PD3D Cell Culture)", "test": "Calculated IC50 in PD3D cell culture of the patient derived organoids", "assay_type": "cell-based, human", "note": "At least one structure is not confirmed: it was looked up by name or label, or the drawing left a doubt.", "data": [{"smiles": "N#CC[C@H](C1CCCC1)n1cc(-c2ncnc3[nH]ccc23)cn1", "note": "[Ruxolitinib]", "values": [{"measurement": "Calculated IC50 PD3D Cell Culture", "value": "Not Reached"}]}]}
